# From patent US20160200802A1
# No constants are given. Whether binding was seen depends on the method and setting. A result given as binding can be weak or reduced; the word gives no strength.
# B1: HMB2435 (antibody, human IgG1, V domains shown)
# VH: QVQLVESGGGVVQPGRPLRLSCAASGFAFNNFALHWVRQAPGKGPEWLAAVSYDGTSPYYAESVRARFSISRDNSKKTFYLQLDSLRPEDTAVYYCARGLGSGSYSWIGYFYAMDVWGRGTTVTVSS
# VL: QSALTQPASVSGSPGQSITISCTGTSSDVGGYVYVAWYQQHPGTAPKLIIYDVSDRPSGVSNRFSGSKSGNTASLTISGLQAEDDADYYCISYTDRNTVVFGGGTKLTVL
# B2: HMB2437 (antibody, human IgG1, V domains shown)
# VH: QVTLKESGPVLVKPSETLTLTCTVSGFSLTDARMGVSWIRQPPGKALEWLAHIFSNDEKFYSTSLKTRLTISKDTSTSQVVLRMTNMDPVDTATYYCARVDQGWVNTYSAFYYGMDFWGQGTTVTVSS
# VL: DIQMTQSPSSLSASVGERVTITCRASQYISTHLNWYQHKPGKAPRLLIYGASHLEGGDPSRFSGSGSGTDFSLTITSLQPEDFATYYCQQTYKTPITFAQGTRLEIK
# B3: HMB2416 (antibody, human IgG1, V domains shown)
# VH: QVQLQESGPGLVKPSQTLSLTCTVSGGSISSGDYYWSWIRQPPGKGLEWIGYIYFSGSTYYNPSLKSRVTMSGDTSKNQFSLRLSSVTAADTAVYYCAREDTTMAIPYYFDPWGRGILVTVSS
# VL: SYVLTQPPSVSVAPGRTARITCGRHNIGNENVHWYQQRPGQAPVLVIYSDSDRPSGIPERFSGSNSGNTATLSISRVEAGDEADYYCQVWDSSTDQVVFGGGTKLTVL
# B4: HMB2432 (antibody, V domains shown)
# VH: EVQLVQSGAEVKKPGTSLKISCKGSGFSFSNYWIGWVRQMPGKGLEWMGIVYPADSDTRYSPSFQGQVTISGDNSINTAYLQWSRLKASDTATYYCVRQIGGVVTTATDDYFYGMDIWGPGTTVIVSS
# VL: ETTLTQSPSSLSASVGDRVTITCRASQTVKSFLNWYQQKPGKAPKLLIYDASDLQSGVPSRFSGSGSGTDFTLTISRLQPEDFATYFCQQSYRTPLTFGQGTRVEIK
# What was measured:
# [1] = target: stabilized soluble pre-fusion RSV F protein (RSV); test: SPR, antibody immobilized, F protein injected
# [2] = target: stabilized soluble pre-fusion RSV F protein (RSV); test: SPR
Binder,binding [1],binding [2]
B1,binds,binds
B2,binds,binds
B3,binds,binds
B4,binds,binds
